Results published in patent publication US20210221847A1.

The chains behind the UniProt entries cited, without tags or fusion partners. Residues count along the entry.
UniProt P06733, residues 2-434: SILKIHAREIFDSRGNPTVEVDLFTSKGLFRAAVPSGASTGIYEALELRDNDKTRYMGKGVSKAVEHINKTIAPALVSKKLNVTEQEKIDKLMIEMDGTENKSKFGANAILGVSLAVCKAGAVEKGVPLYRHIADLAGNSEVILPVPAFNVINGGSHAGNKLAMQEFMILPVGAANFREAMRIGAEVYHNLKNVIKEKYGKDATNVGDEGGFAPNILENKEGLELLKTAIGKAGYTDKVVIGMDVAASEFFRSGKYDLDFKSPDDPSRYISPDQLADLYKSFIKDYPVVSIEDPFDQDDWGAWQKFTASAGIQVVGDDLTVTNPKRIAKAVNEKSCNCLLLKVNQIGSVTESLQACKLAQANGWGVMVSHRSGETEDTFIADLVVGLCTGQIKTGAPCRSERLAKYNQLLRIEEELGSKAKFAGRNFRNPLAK
UniProt P04114, residues 28-4563: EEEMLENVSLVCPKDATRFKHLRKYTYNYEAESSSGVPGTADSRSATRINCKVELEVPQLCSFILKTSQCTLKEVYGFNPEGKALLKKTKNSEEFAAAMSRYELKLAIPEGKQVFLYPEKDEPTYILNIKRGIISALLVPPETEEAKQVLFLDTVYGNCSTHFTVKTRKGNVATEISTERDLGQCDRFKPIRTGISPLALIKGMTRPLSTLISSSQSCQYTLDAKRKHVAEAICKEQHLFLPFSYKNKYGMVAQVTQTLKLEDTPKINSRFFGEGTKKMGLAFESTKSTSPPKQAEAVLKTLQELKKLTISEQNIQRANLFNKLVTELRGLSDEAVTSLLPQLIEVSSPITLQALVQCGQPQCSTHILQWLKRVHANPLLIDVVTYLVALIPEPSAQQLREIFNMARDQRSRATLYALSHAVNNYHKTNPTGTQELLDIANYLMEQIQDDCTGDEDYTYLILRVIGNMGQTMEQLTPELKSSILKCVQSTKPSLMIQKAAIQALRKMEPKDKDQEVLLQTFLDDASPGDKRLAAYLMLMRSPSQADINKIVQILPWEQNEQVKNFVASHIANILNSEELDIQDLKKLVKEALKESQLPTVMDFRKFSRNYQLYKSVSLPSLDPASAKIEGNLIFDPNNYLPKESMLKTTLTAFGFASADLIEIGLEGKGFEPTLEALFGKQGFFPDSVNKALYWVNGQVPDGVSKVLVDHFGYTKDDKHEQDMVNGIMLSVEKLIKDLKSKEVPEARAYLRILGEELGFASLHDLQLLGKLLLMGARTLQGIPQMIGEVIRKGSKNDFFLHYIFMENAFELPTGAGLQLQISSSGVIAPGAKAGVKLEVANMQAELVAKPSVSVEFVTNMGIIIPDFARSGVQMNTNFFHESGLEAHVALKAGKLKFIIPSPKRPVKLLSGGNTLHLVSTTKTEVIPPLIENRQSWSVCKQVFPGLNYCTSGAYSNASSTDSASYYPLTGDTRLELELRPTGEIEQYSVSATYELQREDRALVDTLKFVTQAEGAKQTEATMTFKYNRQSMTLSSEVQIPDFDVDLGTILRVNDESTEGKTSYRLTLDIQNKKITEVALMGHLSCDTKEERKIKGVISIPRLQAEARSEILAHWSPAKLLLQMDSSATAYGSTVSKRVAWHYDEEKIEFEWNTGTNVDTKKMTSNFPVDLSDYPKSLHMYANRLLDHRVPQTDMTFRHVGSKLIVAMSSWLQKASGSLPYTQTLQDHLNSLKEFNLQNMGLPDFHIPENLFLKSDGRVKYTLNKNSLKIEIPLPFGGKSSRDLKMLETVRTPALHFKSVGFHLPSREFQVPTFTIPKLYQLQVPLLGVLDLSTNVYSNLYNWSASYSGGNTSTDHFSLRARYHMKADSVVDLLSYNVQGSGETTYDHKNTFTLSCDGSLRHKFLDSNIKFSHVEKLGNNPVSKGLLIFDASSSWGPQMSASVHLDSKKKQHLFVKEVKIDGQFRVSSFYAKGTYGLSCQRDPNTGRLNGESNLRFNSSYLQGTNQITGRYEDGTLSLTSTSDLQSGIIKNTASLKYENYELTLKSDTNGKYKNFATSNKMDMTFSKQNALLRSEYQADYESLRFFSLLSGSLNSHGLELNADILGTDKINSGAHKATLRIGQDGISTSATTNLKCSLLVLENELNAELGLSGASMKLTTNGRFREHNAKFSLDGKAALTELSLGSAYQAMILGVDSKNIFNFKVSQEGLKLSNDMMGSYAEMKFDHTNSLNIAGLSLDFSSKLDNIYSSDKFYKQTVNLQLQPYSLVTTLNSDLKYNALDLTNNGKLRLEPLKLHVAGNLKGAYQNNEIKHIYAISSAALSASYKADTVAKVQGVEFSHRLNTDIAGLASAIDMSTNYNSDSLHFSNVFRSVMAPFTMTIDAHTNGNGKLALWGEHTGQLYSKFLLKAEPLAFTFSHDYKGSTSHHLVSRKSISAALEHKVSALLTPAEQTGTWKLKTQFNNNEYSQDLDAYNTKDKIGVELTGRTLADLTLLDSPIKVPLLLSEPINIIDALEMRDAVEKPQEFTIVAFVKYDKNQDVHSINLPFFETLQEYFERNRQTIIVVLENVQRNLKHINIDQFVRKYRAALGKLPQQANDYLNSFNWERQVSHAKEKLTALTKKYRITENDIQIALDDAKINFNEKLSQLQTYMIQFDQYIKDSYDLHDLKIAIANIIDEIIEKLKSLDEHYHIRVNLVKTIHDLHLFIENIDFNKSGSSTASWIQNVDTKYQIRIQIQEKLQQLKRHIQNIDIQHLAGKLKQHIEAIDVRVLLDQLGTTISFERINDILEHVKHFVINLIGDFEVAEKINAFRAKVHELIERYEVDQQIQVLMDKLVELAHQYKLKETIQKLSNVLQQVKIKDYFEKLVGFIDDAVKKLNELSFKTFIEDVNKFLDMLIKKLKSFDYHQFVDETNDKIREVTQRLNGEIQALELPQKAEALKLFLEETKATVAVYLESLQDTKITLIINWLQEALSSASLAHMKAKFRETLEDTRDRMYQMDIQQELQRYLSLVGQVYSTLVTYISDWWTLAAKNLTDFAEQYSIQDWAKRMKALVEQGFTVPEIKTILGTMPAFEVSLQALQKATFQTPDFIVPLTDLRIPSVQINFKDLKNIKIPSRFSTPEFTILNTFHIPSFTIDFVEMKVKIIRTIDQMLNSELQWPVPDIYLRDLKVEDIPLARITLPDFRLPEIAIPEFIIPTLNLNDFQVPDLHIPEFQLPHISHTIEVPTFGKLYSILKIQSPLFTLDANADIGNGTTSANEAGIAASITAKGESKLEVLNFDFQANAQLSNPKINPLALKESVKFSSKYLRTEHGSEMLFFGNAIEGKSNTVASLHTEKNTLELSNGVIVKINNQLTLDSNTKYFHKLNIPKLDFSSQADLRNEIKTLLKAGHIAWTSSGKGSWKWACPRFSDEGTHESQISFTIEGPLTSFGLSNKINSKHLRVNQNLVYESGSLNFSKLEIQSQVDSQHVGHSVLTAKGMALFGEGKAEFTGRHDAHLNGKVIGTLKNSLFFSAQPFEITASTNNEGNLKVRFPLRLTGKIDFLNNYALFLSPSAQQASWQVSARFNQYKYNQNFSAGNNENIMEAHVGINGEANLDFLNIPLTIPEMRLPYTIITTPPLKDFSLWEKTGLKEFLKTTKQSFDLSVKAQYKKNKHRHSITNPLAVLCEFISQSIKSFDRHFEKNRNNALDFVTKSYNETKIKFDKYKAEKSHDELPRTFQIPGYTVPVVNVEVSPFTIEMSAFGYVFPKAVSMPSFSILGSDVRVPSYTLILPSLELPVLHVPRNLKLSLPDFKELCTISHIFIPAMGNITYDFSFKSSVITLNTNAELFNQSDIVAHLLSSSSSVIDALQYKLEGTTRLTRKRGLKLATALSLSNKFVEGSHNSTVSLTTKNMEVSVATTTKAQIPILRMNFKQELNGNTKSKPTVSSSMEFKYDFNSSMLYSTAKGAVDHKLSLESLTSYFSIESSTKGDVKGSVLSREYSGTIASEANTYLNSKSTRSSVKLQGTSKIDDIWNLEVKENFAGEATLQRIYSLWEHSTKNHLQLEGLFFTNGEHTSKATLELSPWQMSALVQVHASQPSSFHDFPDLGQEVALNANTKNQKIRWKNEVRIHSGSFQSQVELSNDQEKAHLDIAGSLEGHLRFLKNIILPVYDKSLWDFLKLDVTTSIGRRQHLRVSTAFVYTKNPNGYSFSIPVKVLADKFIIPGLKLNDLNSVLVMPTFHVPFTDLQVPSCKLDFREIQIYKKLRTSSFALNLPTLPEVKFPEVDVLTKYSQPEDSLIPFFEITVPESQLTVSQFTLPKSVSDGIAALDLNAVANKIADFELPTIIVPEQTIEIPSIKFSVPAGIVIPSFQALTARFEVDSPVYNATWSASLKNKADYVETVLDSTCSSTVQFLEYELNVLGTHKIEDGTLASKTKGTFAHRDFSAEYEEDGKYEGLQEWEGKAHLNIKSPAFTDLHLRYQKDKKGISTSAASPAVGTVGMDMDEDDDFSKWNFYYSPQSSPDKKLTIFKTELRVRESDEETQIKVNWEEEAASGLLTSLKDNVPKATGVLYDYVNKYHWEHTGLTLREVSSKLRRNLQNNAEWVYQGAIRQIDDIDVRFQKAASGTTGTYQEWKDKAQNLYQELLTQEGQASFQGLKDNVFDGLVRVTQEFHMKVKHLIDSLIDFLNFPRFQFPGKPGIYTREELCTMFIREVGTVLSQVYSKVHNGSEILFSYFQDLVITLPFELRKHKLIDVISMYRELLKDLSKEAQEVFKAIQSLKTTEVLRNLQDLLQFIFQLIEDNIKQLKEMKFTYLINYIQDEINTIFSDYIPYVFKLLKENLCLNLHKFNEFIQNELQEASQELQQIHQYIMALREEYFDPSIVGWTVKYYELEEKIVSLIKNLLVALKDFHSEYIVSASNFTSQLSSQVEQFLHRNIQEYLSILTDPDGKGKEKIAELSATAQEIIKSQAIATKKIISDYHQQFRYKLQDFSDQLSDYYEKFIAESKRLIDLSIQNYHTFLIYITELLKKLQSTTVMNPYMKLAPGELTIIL

Target: ENO1 (α-enolase) (human (rheumatoid arthritis patient)) (UniProt P06733)
Assay: proteomic analysis using immunoprecipitation (IP)/mass spectroscopy (MS)

apolipoprotein B100 (apoB100) (from UniProt P04114 28-4563) (ligand)
binding: binds

Results are given in words; binding and its absence hold for the method and conditions named. In cells and extracts the contact can be indirect. A yes stands for co-enrichment or nearness to the bait. Other partners may have been found.
